Results: PMC6297230, “Structural basis of meiotic telomere attachment to the nuclear envelope by MAJIN-TERB2-TERB1” (Nature Communications, 2018)
These are yes or no findings as the source states them, for the method shown. Some entries that bind do so weakly or less than the wild type.

B1: TERB1 TERB2-binding site (amino acids 585–642) (domain or fragment, human, UniProt Q8NA31 585-642, looked up)
chain: SEMLTYRCSGCIAVEKSLNSRNFSKLLHSCPYQCDRHKVIVEAEDRYKSELRKSLICN
notes: human TERB1, canonical isoform Q8NA31, amino acids 585-642; Forms large aggregates in isolation; also called TERB1T2B; T2B; source: E. coli BL21 (DE3), co-expressed with TERB2, purified (Ni-NTA, amylose, ion exchange, SEC)
B2: TERB2 N-terminal end, longer construct (amino acids 1–119) (domain or fragment, UniProt Q8NHR7 1-119)
chain: MFQGQRGWFCGSVSQDLRQFWVAEGGTISDPRAADFLFSCDASHPDTLRIYQSLDYIEDNATVFHAYYLSAVANAKIKNSVALGHFILPPACLQKEIRRKIGSFIWEQDQHFLIEKHDE
B3: TERB1 TRF1-binding domain (amino acids 561–658) (domain or fragment, human, UniProt Q8NA31 561-658, looked up)
chain: TDPFTLCSDIINKEVVSFLATPSCSEMLTYRCSGCIAVEKSLNSRNFSKLLHSCPYQCDRHKVIVEAEDRYKSELRKSLICNKKILLTPRRRQRLSNE
notes: human TERB1, canonical isoform Q8NA31, amino acids 561-658; The discussion prints 568–658 once for TRFB; also called TERB1_(TRFB); TRFB; source: E. coli BL21 (DE3), co-expressed with TRF1 TRFH and/or TERB2, purified (Ni-NTA, amylose, ion exchange, SEC)
B4: TERB2 N-terminal end (amino acids 1–107) (domain or fragment, human, UniProt Q8NHR7 1-107, looked up)
chain: MFQGQRGWFCGSVSQDLRQFWVAEGGTISDPRAADFLFSCDASHPDTLRIYQSLDYIEDNATVFHAYYLSAVANAKIKNSVALGHFILPPACLQKEIRRKIGSFIWE
notes: Forms large aggregates in isolation; source: E. coli BL21 (DE3), co-expressed with TERB1, purified (Ni-NTA, amylose, ion exchange, SEC)

Columns and labels:
[1] = molecular target: T1, full length TERB2 (1–220) (human, UniProt Q8NHR7 1-220); assay: SEC-SAXS; purified complexes at > 10 mg/ml on Superdex 200 Increase 10/300 GL in 20 mM Tris pH 8.0, 250 mM KCl; ab initio, rigid body and multi-phase modelling; both purified
T1 construct: human TERB2, canonical isoform Q8NHR7, full length, amino acids 1-220; source: E. coli BL21 (DE3), co-expressed with MAJIN and TERB1, purified (Ni-NTA, amylose, ion exchange, SEC)
T1 sequence (looked up): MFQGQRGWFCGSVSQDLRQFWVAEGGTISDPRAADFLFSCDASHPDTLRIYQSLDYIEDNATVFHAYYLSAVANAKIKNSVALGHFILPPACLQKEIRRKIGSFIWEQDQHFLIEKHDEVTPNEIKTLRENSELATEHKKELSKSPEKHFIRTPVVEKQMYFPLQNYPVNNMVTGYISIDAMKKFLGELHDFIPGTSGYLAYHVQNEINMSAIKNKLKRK

[2] = molecular target: B4; assay: as above
[3] = molecular target: T1, full length TERB2 (1–220); assay: SEC; co-purification of recombinantly co-expressed proteins from E. coli (Ni-NTA, amylose, ion exchange, tag cleavage, size exclusion chromatography); elution profiles and SDS–PAGE; both purified
[4] = molecular target: B4; assay: as above
[5] = molecular target: T2, TERB1 TRF1-binding domain (amino acids 561–658) (human) (UniProt Q8NA31); assay: as above
T2 sequence: B3 chain

[6] = molecular target: T2, TERB1 TRF1-binding domain (amino acids 561–658) (human); assay: SEC-SAXS; purified complexes at > 10 mg/ml on Superdex 200 Increase 10/300 GL in 20 mM Tris pH 8.0, 250 mM KCl; ab initio, rigid body and multi-phase modelling; both purified

Q: What does the source list for B1?
A: binding [1]: binds; binding [2]: binds; binding [3]: binds; binding [4]: binds

Q: How did the binding [5] turn out when B2 was run?
A: binds

Q: For B3, which binding [3] is on record?
A: binds

Q: Which binding [6] does the source give for B4 here?
A: binds
